Laboratory results published in publication PMC12607858, “GNAT family Pat2 is required for long-term survival on glycerol and catalyzes lysine acetylation of glycerol kinase in hypersaline-adapted archaea” (mBio, 2025).
No constants are given. Whether binding was seen depends on the method and setting. Sequences can lack the tags named with a protein.

Biological target: HvPat2-SII (Haloferax volcanii Pat2, HVO_1821, with a C-terminal StrepII tag) (Haloferax volcanii) (UniProt D4GSS9)
Assay: SEC; Superdex 75 Increase 10/300 GL, 50 mM HEPES pH 7.5, 2 M NaCl, 1 mM DTT, 0.3 mL/min, after StrepTactin purification; both purified

B1: HvPat2-SII (Haloferax volcanii Pat2, HVO_1821, with a C-terminal StrepII tag) (enzyme, UniProt D4GSS9 1-184)
chain: MSDRTFSDAVADPYDAPPLSFTDGEDRTIEVRAHDGSDEELEALVEMYDAFDPSDRAQGIPPGREDRIRDWLENILDEDCLNVIAWDGDEVAGHATLVPDGDAYELAIFVHQTYQRAGIGTRLIKALLGYGRVSGVEKVWLTVERWNRAAVGLYQTVGFETSDAESFELEMTIRLAEPPDDEGG
- binding: no binding
